Reference: patent US20130023033A1, “PHARMACOLOGICALLY INDUCED TRANSGENE ABLATION SYSTEM” (The Trustees of the University of Pennsylvania, priority 2010, published 2013)
For at least one compound, name, drawing or mass did not settle the structure.

Tested on: GFP-Luciferase driven by a promoter induced by the dimerized TF
Test: In vivo model for a dimerizer-inducible system (Xenogen imaging of luciferase after rapamycin)
Design: species or system mouse
Settings: TF expression controlled by CMV promoter
Source text: Four groups of three mice received IV injection of AAV vectors encoding bicistronic reporter genes (GFP-Luciferase) at doses of 3×10^10, 1×10^11 and 3×10^11 particles of virus, respectively: Group 1 (G 1, G2, and G3) received AAV vectors expressing GFP Luciferase under the control of ubiquitous constitutive CMV promoter (see FIG. 16A for a diagram of the DNA construct). Group 2 (G4, G5, and G6) received co-injection of the following 2 AAV vectors: (1) AAV vector expressing a dimerizable transcription factor domain unit (FRB fused with p65 activation domain and DNA binding domain ZFHD fused with 3 copies of FKBP) driven by the CMV promoter (the DNA construct shown in FIG. 9B; and (2) AAV vector expressing GFP-Luciferase driven by a promoter induced by the dimerized TF (see FIG. 19C for a diagram of the DNA constructs). Group 3 (G7, G8, and G9) received AAV vector expressing GFP-Luciferase under the control of a liver constitutive promoter, TBG (see FIG. 16C for a diagram of the DNA construct). […]
About 2 weeks post virus administration, the mice were given IP injection of the dimerizer, rapamycin, at the dose of 2 mg/kg. Starting the next day the luciferase expression was monitored by Xenogen imaging analysis. […]

SMILES: CO[C@H]1C[C@@H]2CC[C@@H](C)[C@@](O)(O2)C(=O)C(=O)N2CCCC[C@H]2C(=O)O[C@H]([C@H](C)C[C@@H]2CC[C@@H](O)[C@H](OC)C2)CC(=O)[C@H](C)/C=C(\C)[C@@H](O)[C@@H](OC)C(=O)[C@H](C)C[C@H](C)/C=C/C=C/C=C/1C [rapamycin]
- induced luciferase expression in mouse liver versus expression from CMV promoter without regulation: significantly higher
